Assay results as given in the supplement of paper PMC10060354, “Discovery of a small molecule ligand of FRS2 that inhibits invasion and tumor growth” (Cellular Oncology, 2022).
Repeats are few or missing, and single values can be far off.

Chains of the proteins cited; added tags and fusions are not shown. Lines headed by an entry give the natural chain unless they say otherwise; changes in a name come on top.
UniProt Q96T21: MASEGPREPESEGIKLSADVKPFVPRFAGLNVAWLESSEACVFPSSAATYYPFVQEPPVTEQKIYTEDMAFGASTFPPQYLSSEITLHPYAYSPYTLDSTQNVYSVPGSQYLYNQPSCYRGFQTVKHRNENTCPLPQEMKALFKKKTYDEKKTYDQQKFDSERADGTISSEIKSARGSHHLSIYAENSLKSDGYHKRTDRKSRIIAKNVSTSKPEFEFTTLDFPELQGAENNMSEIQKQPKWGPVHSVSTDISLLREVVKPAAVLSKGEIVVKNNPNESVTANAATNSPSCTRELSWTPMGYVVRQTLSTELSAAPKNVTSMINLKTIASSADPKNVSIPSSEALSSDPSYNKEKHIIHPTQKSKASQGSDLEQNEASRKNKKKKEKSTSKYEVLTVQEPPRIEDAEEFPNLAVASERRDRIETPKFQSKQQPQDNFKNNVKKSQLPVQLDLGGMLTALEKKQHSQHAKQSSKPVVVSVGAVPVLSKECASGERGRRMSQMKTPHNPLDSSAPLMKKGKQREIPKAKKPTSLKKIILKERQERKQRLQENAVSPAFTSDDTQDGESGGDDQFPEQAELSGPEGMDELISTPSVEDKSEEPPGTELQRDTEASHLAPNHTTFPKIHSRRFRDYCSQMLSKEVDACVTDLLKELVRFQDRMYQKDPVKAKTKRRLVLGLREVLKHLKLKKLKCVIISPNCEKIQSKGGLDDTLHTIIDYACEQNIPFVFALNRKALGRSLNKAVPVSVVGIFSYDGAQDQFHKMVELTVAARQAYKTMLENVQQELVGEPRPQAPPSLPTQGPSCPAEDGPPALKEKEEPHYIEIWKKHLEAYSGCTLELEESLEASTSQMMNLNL
UniProt Q15742: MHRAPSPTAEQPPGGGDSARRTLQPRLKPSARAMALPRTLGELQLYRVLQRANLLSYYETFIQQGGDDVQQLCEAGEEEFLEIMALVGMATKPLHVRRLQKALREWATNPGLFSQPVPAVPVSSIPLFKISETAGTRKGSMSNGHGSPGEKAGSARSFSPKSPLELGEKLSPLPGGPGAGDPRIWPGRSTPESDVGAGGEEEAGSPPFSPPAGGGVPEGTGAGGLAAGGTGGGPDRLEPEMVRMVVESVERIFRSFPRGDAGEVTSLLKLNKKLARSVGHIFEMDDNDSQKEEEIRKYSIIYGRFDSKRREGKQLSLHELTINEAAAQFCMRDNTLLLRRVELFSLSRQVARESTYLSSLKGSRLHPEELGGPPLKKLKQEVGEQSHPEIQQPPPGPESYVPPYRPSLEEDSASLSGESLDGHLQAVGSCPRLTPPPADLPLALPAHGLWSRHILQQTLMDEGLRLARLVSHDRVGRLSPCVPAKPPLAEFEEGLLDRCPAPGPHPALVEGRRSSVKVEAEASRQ
UniProt Q9Y2Y0: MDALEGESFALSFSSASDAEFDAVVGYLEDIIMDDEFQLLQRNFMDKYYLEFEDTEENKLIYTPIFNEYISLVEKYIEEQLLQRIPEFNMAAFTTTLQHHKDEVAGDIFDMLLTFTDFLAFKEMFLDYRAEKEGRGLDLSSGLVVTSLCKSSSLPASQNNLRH
UniProt Q9H1Z4: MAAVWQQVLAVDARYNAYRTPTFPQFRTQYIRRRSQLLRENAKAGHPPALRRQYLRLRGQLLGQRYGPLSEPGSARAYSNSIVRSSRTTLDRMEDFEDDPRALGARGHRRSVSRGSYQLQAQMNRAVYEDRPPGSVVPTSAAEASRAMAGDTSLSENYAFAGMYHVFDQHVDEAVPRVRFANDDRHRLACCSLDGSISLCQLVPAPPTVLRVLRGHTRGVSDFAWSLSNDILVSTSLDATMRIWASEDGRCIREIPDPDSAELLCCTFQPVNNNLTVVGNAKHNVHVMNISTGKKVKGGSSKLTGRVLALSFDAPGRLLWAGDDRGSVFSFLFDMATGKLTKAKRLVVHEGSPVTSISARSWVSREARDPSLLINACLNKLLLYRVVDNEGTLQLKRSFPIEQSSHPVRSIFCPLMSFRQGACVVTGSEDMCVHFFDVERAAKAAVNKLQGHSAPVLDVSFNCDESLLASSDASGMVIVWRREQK
UniProt Q14240, whole entry: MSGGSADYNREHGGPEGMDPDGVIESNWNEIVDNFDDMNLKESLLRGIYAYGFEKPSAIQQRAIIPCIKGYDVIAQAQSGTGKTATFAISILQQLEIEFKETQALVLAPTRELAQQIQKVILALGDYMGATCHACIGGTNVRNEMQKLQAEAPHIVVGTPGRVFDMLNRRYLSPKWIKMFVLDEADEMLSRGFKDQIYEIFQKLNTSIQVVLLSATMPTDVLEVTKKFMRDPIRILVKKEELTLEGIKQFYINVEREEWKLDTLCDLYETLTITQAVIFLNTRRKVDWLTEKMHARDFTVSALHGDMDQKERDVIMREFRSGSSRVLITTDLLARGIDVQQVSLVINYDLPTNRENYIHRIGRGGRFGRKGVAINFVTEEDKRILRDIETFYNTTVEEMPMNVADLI
UniProt O60711: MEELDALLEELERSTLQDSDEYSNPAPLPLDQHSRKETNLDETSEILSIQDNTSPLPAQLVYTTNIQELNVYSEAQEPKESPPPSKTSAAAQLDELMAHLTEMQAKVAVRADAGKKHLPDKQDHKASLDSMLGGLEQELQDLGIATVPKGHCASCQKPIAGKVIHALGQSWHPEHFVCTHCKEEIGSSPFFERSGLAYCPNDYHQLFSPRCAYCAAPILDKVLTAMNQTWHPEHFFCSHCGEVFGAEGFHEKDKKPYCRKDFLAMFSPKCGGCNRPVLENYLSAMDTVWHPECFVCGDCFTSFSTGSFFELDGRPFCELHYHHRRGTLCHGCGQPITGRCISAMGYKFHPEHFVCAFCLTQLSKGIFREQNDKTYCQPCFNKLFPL
UniProt Q9H6R4: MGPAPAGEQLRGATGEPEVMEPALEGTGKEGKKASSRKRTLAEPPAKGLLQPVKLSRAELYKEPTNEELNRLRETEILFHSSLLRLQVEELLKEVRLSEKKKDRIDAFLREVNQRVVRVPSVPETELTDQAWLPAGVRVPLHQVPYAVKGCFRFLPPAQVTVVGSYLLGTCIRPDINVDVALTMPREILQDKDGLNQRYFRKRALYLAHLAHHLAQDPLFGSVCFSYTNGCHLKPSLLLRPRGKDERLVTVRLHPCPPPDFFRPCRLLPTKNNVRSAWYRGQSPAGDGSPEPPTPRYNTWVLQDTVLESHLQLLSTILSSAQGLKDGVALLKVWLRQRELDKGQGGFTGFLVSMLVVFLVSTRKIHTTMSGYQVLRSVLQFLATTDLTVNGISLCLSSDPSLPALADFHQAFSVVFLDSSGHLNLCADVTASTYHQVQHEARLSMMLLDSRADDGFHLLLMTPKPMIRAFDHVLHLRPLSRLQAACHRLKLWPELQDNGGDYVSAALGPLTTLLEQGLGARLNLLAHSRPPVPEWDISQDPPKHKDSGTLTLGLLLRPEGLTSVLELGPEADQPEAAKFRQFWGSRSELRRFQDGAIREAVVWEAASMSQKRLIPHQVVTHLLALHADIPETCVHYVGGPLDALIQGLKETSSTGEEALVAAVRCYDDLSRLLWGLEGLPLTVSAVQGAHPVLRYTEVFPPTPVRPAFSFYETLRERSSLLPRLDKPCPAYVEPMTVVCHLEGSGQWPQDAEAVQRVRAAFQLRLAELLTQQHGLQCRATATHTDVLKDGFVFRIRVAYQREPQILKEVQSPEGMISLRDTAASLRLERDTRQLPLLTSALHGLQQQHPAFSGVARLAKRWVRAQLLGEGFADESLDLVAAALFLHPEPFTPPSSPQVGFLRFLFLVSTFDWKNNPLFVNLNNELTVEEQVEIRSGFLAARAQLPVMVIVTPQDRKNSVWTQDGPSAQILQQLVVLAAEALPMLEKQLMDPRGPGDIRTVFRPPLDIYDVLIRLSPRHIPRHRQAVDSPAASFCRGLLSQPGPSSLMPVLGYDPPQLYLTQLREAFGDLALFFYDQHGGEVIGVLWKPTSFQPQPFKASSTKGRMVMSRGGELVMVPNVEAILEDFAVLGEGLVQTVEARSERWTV
UniProt Q9UJ98: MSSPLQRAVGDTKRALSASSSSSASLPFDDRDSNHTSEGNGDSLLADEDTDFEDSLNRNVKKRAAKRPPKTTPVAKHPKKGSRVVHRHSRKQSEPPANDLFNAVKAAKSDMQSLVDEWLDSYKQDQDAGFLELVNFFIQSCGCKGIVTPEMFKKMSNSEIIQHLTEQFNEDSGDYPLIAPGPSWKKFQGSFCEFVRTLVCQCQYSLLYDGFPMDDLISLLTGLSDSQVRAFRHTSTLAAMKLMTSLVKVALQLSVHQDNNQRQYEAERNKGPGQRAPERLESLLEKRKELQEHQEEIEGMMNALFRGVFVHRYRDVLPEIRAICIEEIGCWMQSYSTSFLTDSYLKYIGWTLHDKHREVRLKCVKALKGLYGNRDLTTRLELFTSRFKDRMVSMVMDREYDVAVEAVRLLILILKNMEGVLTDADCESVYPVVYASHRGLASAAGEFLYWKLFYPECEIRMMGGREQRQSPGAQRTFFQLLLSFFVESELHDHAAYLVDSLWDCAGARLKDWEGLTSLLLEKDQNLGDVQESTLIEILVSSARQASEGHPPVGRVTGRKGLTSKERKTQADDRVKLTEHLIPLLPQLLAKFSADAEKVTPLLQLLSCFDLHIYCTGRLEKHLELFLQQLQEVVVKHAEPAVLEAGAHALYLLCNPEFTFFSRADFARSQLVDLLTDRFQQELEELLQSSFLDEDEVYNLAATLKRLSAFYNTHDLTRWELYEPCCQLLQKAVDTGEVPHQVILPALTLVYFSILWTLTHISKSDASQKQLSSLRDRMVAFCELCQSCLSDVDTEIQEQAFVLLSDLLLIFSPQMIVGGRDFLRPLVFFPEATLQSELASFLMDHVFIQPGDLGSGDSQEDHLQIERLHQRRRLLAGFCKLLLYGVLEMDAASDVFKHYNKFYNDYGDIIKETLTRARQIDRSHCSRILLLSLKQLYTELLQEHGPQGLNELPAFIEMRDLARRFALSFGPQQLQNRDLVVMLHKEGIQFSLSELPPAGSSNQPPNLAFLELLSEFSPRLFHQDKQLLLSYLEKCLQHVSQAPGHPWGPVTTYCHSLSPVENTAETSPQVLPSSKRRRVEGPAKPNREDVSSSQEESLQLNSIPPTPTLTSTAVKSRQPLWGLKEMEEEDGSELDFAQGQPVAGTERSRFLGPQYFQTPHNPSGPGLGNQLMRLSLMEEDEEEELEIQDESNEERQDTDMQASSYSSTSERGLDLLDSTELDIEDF
UniProt Q99618: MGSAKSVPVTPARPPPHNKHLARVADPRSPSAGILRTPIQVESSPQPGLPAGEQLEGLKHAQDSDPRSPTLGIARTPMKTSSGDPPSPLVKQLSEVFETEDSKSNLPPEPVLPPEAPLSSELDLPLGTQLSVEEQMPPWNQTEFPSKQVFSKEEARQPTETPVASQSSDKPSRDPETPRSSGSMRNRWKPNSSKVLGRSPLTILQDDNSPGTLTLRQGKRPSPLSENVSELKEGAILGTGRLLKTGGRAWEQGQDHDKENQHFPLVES
UniProt Q8TEH3: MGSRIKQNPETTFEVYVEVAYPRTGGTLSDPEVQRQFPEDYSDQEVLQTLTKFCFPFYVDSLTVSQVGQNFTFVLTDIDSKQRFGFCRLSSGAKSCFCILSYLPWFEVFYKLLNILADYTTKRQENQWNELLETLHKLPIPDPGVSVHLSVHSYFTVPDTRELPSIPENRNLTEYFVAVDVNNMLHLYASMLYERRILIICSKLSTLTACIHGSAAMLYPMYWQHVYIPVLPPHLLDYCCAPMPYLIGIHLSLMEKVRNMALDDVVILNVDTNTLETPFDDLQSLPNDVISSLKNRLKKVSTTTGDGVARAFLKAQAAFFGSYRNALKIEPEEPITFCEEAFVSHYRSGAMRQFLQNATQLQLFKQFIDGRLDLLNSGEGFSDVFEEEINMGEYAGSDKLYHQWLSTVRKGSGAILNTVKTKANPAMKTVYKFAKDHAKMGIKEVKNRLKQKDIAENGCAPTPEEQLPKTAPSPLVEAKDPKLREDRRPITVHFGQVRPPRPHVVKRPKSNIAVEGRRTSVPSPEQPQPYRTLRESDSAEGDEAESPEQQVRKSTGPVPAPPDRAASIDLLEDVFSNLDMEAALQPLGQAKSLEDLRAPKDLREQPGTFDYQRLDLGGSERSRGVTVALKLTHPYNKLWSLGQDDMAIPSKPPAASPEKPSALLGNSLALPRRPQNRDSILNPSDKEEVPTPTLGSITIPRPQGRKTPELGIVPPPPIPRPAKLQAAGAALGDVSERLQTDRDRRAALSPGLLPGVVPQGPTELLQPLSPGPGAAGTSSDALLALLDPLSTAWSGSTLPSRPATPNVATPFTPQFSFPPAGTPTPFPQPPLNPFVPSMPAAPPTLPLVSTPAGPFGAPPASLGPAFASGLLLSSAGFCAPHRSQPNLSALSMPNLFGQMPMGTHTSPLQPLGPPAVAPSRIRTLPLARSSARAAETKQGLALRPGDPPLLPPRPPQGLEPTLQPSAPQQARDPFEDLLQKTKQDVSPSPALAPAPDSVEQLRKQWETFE

Compound: [O-][N+](C(C1=C(C(O)=C2)NC(C(C=C3)=CC=C3Cl)C4C1C=CC4)=C2Cl)=O
Experiment: melting temperature shift (compound 7 minus DMSO); higher = compound stabilises the protein
Details: 10 µM
Method: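 Thermal proteome profiling (TMT mass spectrometry) in intact DAOY medulloblastoma cells or DAOY lysates treated with 10 µM compound 7 or DMSO, heated at 10 temperatures from 40.5 to 73.8 °C for 3 min. Melting curves were fitted with the Bioconductor TPP package, and the melting point difference between compound and vehicle is reported per protein (single curve per condition).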

[1] = system: DAOY cell lysate, treatment time: 20 min, 4 °C
[2] = system: intact DAOY cells, treatment time: 90 min, 37 °C

Target	melting temperature shift [1]	melting temperature shift [2]
ZNF622 (UniProt Q969S3)	0.173 °C	-1.01 °C
UniProt Q96T21		0.0765 °C
NUDT3 (UniProt O95989)	-1.65 °C	-0.438 °C
UniProt Q8WUJ0	-2.63 °C	
STXBP1 (UniProt P61764)	1.9 °C	0.0949 °C
UniProt O60732	-0.939 °C	-0.486 °C
NAB2 (UniProt Q15742)	-1.51 °C	
ARL2BP (UniProt Q9Y2Y0)	-1.14 °C	
CYP1B1 (UniProt Q16678)	0.444 °C	0.0226 °C
MRPL13 (UniProt Q9BYD1)	-0.827 °C	-2.49 °C
HNRNPU (UniProt Q00839)	0.767 °C	-1.21 °C
WDR13 (UniProt Q9H1Z4)	-0.424 °C	0.00182 °C
SRSF4 (UniProt Q08170)	-0.666 °C	-1.08 °C
FOXP4 (UniProt Q8IVH2)	2.1 °C	
NOMO1 (UniProt Q15155)	0.551 °C	-0.175 °C
EIF4A2 (UniProt Q14240)	-0.419 °C	-0.114 °C
CHP1 (UniProt Q99653)	1.28 °C	-1 °C
PPP3CB (UniProt P16298)	-0.457 °C	-0.187 °C
MRPL46 (UniProt Q9H2W6)	-4.3 °C	-0.629 °C
VPS29 (UniProt Q9UBQ0)	-0.831 °C	-0.654 °C
UniProt Q13905	-0.352 °C	

A second format for some results above:
Target | melting temperature shift [1] | melting temperature shift [2]
STXBP1 (UniProt P61764) | 1.9 °C | 0.0949 °C
UniProt O60732 | -0.939 °C | -0.486 °C
NAB2 (UniProt Q15742) | -1.51 °C | 
ARL2BP (UniProt Q9Y2Y0) | -1.14 °C | 
CYP1B1 (UniProt Q16678) | 0.444 °C | 0.0226 °C
MRPL13 (UniProt Q9BYD1) | -0.827 °C | -2.49 °C
HNRNPU (UniProt Q00839) | 0.767 °C | -1.21 °C
WDR13 (UniProt Q9H1Z4) | -0.424 °C | 0.00182 °C
SRSF4 (UniProt Q08170) | -0.666 °C | -1.08 °C
FOXP4 (UniProt Q8IVH2) | 2.1 °C | 

The list goes on:

Target	melting temperature shift [1]	melting temperature shift [2]
UXS1 (UniProt Q8NBZ7)	-0.144 °C	-0.444 °C
UniProt Q96PQ5		-0.38 °C
UniProt O60711	-0.721 °C	1.76 °C
RPL28 (UniProt P46779)	0.736 °C	-0.621 °C
ITPA (UniProt Q9BY32)	-0.708 °C	-0.548 °C
EEF1D (UniProt P29692)	-0.393 °C	0.0554 °C
SFR1 (UniProt Q86XK3)	0.0934 °C	
GDA (UniProt Q9Y2T3)	-1.13 °C	-1.56 °C
RCC2 (UniProt Q9P258)	-0.396 °C	0.0142 °C
UniProt P58012		-1.23 °C
NAP1L1 (UniProt P55209)	-0.0761 °C	0.398 °C
SNAP29 (UniProt O95721)	-2.08 °C	
UTP15 (UniProt Q8TED0)	1.25 °C	-0.469 °C
NOL6 (UniProt Q9H6R4)	0.369 °C	
PIGK (UniProt Q92643)	1.3 °C	-0.973 °C
GGCX (UniProt P38435)	0.339 °C	-0.637 °C
CHID1 (UniProt Q9BWS9)	-0.517 °C	0.548 °C
ADO (UniProt Q96SZ5)	0.214 °C	0.915 °C
UniProt Q9UJ98		-2.23 °C
CDCA3 (UniProt Q99618)	-0.122 °C	
DENND1A (UniProt Q8TEH3)	-1.12 °C	
